According to paper doi:10.1101/2022.06.14.496162:
No constants are given. Whether binding was seen depends on the method and setting. In cells and extracts the contact can be indirect. Some binding calls cover weakened binding; strength is not graded here. Where a sequence is shown, tags or fusion partners need not be part of it.

T1: PARG-1::GFP (C. elegans) (UniProt Q867X0)
T1 sequence: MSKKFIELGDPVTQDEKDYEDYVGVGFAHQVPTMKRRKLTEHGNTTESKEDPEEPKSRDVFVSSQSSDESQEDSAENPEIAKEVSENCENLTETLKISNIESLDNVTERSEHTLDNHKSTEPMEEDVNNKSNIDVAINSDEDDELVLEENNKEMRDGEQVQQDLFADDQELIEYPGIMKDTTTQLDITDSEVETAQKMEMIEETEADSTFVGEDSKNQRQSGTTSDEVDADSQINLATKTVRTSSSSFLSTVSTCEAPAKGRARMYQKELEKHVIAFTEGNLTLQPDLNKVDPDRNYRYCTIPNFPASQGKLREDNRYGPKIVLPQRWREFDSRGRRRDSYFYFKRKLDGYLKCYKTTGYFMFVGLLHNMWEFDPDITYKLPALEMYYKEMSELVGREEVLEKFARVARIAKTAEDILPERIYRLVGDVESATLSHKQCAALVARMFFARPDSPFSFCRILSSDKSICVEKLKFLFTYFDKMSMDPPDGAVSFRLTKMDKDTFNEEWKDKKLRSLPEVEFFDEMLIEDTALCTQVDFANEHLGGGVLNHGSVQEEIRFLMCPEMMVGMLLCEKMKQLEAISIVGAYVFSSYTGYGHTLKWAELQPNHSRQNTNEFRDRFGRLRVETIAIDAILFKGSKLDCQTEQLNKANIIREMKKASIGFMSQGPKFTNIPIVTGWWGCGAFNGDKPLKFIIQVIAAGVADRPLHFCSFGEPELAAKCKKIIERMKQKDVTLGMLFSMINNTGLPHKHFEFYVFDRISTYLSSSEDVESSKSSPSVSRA


Molecular target: T1, PARG-1::GFP (C. elegans)
Experiment: co-IP

| binding | Binder |
| --- | --- |
| binds | BRD-1::HA (protein, UniProt Q21209 1-702) MFENTKKALETFRTAIECVKCKKPRGDLQYLGSSCKHAYCWECIATFQQKPSGKRSSVARHMCPSCAFPLDTSKITEAHMLKTCFDTLSELNDLLQKVGTTSLTQAEFACTQNIFNKEKTPADAVEKFLETQAHMPDEMGQLGEEDDDLMCKDENRENSNSPELDIFHDYSKEASPTRNSTKRPSTVSVHERKPKRSSILKTSVKNEPAAPVVDLFASQVPQRTHQNDLLTPFIERRSTAPAATGVATYAQAFGSSSNPVKAEIIEEDIFSKAIPLTKRQASMSASAKKQPKLEPEEPEEVPSTSRSRKNSIKSDKIERRSQSPMSFGEKSMSVKSEQRRSSYGTRRGEAVLVNSIRNNRIPQLRSAVEAGTCVNEKEDGKTPLYVAVENSSLEAVKILVEAGAVINASCGSTLETTLHEAVRRQNTQIVEYLLSKGASIKIRNIAGKTVEEMAKSDPKIRKIIEKFKTEQRVLQPVVAPPKSRLHFVQLIDEKMLTESEKRKLPGKINIVPADMDSPTHVVVTVDLKTRVLNINKEHIGEILKAIIKSGMIVSRDWLRACIIDPSKVDDDRSYMVQKVRWMEGEVFENTIEQWKKTITKMQPKLFAGCKFFIPKPKYNFLDRPALFEIIRSAGGQAAAREPIIDEKDPPPYHNANLKPNFVLYSLTHDIGDKFRDCTKYNLVSEQWLIEAILGCSITTPPH |
| binds | BRC-1::HA (protein, UniProt B6VQ60 1-609) MADVALRITETVARLQKELKCGICCSTYKDPILSTCFHIFCRSCINACFERKRKVQCPICRSVLDKRSCRDTYQITMAVQNYLKLSEAFKKDIENMNTFKSLPPEKMFMESQMPLDITIIPENDGKRCAPDFAIPFLPVRRKRPSRPQPPSAFAEEPAEPVEPPEPATKQPVELQSRVFPLEKLKKDVETSTETYKISREELKNVDIEEYINTLRENSTEIDEIDALFQLMPTMRQFLRNNINQLMEKFHVAPPKKSEKPANRRVSFASSQDLENIKIMTASESLETPPEPIQKLAQKPEVFKSTQNLIDLNLNTAVKKPVVVASDDDEVVEDSEGELQIDEDDLANVTCATSSTTLDADRTPKAIQDDEDRIDDELSQVPKTIVCSRIHNDADEVELLSDFYHKFLSNACRFAEDVNEHTTHLVMMNSEGRSISQKSTAYLYAIARKCVIVGRQWLVDCITTGLLLSEADYTITSCSSTIPVKIPPSIGSEMGWLRSRNDEHGKLFAGRRFMILRKFTMNPYFDYKQLIELVQQCGGEILSCYENLSPEKLYIIFSKHSKAIEESKNIENLYKCDVVTMEWVLDSISEYLILPTQPYKAVDSIGCLQD |
